Measured values as given in PMC9044860.
No constants are given. Whether binding was seen depends on the method and setting. In cells and extracts the contact can be indirect. Some entries that bind do so weakly or less than the wild type.

Chains of the proteins cited; added tags and fusions are not shown.
UniProt Q16665: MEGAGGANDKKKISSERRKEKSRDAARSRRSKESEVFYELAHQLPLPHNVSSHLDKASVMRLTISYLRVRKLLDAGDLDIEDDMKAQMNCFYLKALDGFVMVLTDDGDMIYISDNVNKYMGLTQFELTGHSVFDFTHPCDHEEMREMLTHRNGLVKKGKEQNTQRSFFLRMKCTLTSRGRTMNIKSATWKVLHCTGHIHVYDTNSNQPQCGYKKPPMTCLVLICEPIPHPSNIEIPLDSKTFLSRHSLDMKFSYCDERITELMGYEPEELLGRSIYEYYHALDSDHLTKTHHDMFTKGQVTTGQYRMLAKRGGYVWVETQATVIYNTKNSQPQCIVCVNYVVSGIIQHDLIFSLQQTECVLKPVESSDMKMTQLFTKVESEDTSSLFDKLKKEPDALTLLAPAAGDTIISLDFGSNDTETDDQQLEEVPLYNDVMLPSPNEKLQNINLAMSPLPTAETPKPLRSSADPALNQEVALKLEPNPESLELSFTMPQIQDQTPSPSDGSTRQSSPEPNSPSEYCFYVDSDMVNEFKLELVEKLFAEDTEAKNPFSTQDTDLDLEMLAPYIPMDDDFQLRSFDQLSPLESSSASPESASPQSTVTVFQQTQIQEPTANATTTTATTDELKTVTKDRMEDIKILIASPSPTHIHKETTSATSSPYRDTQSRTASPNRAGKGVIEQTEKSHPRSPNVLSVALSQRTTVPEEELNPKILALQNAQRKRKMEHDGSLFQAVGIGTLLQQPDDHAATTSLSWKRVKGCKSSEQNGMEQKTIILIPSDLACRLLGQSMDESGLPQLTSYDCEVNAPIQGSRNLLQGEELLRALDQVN
UniProt P08047: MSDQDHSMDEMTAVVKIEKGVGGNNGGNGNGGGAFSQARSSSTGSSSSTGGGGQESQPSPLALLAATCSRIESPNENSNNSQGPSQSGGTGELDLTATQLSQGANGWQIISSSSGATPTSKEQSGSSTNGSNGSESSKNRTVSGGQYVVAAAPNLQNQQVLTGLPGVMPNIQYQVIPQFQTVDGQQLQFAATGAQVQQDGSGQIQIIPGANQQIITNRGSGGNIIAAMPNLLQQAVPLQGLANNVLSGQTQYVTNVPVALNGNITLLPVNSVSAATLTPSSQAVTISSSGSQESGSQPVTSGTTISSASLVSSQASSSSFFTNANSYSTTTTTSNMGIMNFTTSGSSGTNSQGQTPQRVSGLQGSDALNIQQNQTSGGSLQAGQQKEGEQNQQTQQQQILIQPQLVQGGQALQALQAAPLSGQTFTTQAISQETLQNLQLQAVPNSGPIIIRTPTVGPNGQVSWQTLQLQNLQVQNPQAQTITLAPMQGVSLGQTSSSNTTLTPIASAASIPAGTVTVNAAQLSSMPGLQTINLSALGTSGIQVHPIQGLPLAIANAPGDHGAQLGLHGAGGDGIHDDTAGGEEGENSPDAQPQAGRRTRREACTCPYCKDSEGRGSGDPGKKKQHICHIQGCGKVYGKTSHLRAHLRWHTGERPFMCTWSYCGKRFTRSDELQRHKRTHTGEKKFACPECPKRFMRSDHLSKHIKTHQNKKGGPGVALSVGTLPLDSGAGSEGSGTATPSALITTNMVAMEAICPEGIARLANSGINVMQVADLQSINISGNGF

How the values were obtained:
[1] = molecular target: hypoxia-inducible factor-1α (HIF1α) (human (endogenous in NSCLC cell lines)) (UniProt Q16665); test: co-IP; cells overexpressing SP1 under hypoxia; RIPA lysate, immunoprecipitation with anti-SP1 or anti-HIF1α antibodies (normal IgG as control), Dynabeads-protein G, western blot
[2] = molecular target: specificity protein 1 (SP1), overexpressed from plasmid (pcDNA SP1) (UniProt P08047); test: as above
[3] = molecular target: specificity protein 1 (SP1) (human (endogenous in NSCLC cell lines)) (UniProt P08047); test: condition: only under normoxia (cells not treated with hypoxia); co-IP; NSCLC cells under normoxia; RIPA lysate incubated with antibody at 4 °C overnight, Dynabeads-protein G, western blot
[4] = molecular target: specificity protein 1 (SP1) (human (endogenous in NSCLC cell lines)) (UniProt P08047); test: co-IP; NSCLC cells after hypoxia (1% O2) for 24 h; RIPA lysate incubated with antibody at 4 °C overnight, Dynabeads-protein G, western blot

| binding [1] | binding [2] | binding [3] | binding [4] | Substance |
| --- | --- | --- | --- | --- |
| binds | – | – | – | specificity protein 1 (SP1), overexpressed from plasmid (pcDNA SP1) (from UniProt P08047 1-785) |
| – | binds | no binding | binds | hypoxia-inducible factor-1α (HIF1α) (from UniProt Q16665 1-826) |
